The record followed here is article PMC9191741.

Series [1] concerns KLF15-RFP-His (Helicoverpa armigera). Nature of the series: EMSA. The note with it: 10 mM Tris-HCl pH 7.5, 1 mM MgCl2, 40 mM KCl, 0.1 mg/ml BSA, 5% glycerol, ~15 ug nuclear protein, 200 fmol FAM probe, room temperature 15 min, 6% PAGE in 0.5x TBE, protein in an extract, protein details: C-terminal RFP-His (from name), label: FAM.
The target in series [2] is T1, EcR-RFP-His (Helicoverpa armigera) (UniProt B9UCQ4).
T1 sequence (looked up, limits assumed): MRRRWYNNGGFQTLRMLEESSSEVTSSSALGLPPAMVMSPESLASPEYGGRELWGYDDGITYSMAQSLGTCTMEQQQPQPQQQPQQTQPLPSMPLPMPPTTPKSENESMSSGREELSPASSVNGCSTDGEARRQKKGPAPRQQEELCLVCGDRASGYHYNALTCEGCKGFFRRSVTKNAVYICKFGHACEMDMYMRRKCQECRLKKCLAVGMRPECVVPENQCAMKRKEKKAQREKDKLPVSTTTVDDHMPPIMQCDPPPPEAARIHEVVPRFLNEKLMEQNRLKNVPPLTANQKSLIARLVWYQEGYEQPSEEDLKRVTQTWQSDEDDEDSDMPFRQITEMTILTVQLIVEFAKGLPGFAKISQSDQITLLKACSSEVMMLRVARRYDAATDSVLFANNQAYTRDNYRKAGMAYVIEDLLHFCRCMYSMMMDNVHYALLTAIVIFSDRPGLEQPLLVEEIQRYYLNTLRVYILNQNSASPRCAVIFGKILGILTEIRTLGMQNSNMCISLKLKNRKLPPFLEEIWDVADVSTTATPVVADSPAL
As to the kind of experiment: EMSA. The note with it: cells treated with 20E or DMSO; 10 mM Tris-HCl pH 7.5, 1 mM MgCl2, 40 mM KCl, 0.1 mg/ml BSA, 5% glycerol; ~15 ug nuclear protein, 200 fmol FAM probe, room temperature 15 min; 6% PAGE in 0.5x TBE; protein in an extract; protein details: C-terminal RFP-His (from name); label: FAM. A general note: In EMSA bound probe runs differently from free probe, usually more slowly.

Series [3] concerns the target T1, EcR-RFP-His (Helicoverpa armigera). Nature of the series: EMSA with supershift. The settings on record: cells treated with 20E (5 uM, 6 h); 10 mM Tris-HCl pH 7.5, 1 mM MgCl2, 40 mM KCl, 0.1 mg/ml BSA, 5% glycerol; ~15 ug nuclear protein, 200 fmol FAM probe, room temperature 15 min; 6% PAGE in 0.5x TBE; protein in an extract; protein details: C-terminal RFP-His (from name); label: FAM.

The test system of series [4] is KLF15-RFP-His (Helicoverpa armigera). As to the kind of experiment: EMSA with supershift and competition. The note with it: 20E-treated cells, 50-fold unlabeled probe reduces the shift; 10 mM Tris-HCl pH 7.5, 1 mM MgCl2, 40 mM KCl, 0.1 mg/ml BSA, 5% glycerol; ~15 ug nuclear protein, 200 fmol FAM probe, room temperature 15 min; 6% PAGE in 0.5x TBE; protein in an extract; protein details: C-terminal RFP-His (from name); label: FAM.

Construct, isoform or probe ends are uncertain for at least one entry. At least one result comes from cells or an extract, where the contact may be indirect. For part of these data: No signal at the amounts used counts as a negative. For part of these data: Tags and fusion partners may be left off the protein sequences shown. For part of these data: The comparison behind a weaker result is the experiment's own reference, which may not be listed here.

Regarding “CCCGCGGTTTCACCCTCGTCCTGTGGGAACTGCTGCCCG (double strand) [Atg8 promoter KLF bs probe WT]”, in series [1], the binding result is listed as “binds”.

On to “CCCGCGGTTTTCCCATCGTCCTGTGGGAACTGCTGCCCG (double strand) [Atg8 promoter KLF bs probe MT]”, for which, in series [1], the binding result was “no binding”.

As for “TCTCAATTACATGTAATAAACGGCTTTGTTAA (double strand) [Klf15 promoter EcRE probe MT]”, the binding result in series [2] is on record as “no binding”.

In the case of “TCTCAATTACGTTCAATAAACGGCTTTGTTAA (double strand) [Klf15 promoter EcRE probe WT]”, the binding result in series [3] was “binds”.

As to “TGAAAACACCCTGACGCCATCTTGTGTTGAAGCTCGCGCG (double strand) [Pepck promoter KLF bs probe WT]”, in series [4], the binding result was “binds”.

As for “TGAAAATCCCATGACGCCATCTTGTGTTGAAGCTCGCGCG (double strand) [Pepck promoter KLF bs probe MT]”, the binding result in series [1] (point mutation inhibited binding) is “binds more weakly”.
